Assay results published in the supplement of paper PMC6411743.
± gives the standard deviation of the averaged measurements. The entries are a selection whose mix differs from that of the whole data set.

Chains of the proteins cited; added tags and fusions are not shown. Lines headed by an entry give the natural chain unless they say otherwise; changes in a name come on top.
UniProt Q96IY1: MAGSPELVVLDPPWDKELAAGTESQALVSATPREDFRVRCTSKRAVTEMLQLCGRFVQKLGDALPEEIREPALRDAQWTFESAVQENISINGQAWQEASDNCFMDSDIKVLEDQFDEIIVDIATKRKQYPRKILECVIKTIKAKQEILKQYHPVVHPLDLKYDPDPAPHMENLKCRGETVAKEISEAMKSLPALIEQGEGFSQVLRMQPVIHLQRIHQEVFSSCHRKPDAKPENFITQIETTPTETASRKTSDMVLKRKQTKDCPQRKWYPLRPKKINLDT
UniProt Q96E39: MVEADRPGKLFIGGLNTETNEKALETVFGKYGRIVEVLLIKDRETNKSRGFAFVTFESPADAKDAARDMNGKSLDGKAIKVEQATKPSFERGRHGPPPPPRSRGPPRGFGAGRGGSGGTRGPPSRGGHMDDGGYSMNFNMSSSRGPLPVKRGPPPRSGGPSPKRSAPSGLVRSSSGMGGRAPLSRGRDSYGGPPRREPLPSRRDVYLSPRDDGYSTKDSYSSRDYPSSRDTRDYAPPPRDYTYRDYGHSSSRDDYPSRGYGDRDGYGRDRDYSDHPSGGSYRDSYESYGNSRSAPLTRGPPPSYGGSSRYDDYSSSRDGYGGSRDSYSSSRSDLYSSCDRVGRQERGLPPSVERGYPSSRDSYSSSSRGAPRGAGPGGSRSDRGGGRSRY
UniProt Q96D05: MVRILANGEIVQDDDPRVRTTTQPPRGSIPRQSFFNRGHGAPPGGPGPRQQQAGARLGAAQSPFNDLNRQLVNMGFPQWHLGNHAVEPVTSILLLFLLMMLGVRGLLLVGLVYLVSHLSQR
UniProt Q96AE4: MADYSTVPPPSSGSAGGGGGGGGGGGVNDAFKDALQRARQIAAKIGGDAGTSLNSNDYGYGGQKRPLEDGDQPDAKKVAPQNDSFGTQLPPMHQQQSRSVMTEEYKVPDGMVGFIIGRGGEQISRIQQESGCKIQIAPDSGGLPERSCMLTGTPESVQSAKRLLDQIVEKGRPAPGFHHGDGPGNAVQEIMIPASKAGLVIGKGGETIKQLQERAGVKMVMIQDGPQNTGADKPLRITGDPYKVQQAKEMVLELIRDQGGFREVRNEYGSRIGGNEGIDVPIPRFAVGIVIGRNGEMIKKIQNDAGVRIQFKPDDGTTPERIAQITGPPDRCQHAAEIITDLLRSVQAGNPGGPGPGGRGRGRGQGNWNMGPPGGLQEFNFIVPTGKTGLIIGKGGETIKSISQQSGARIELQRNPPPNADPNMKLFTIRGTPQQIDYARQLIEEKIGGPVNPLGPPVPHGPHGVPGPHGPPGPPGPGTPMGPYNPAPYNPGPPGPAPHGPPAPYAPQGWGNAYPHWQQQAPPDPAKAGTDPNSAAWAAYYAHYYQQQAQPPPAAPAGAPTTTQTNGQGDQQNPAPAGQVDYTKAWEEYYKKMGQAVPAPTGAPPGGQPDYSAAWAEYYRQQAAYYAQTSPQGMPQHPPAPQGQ
UniProt Q96QE3: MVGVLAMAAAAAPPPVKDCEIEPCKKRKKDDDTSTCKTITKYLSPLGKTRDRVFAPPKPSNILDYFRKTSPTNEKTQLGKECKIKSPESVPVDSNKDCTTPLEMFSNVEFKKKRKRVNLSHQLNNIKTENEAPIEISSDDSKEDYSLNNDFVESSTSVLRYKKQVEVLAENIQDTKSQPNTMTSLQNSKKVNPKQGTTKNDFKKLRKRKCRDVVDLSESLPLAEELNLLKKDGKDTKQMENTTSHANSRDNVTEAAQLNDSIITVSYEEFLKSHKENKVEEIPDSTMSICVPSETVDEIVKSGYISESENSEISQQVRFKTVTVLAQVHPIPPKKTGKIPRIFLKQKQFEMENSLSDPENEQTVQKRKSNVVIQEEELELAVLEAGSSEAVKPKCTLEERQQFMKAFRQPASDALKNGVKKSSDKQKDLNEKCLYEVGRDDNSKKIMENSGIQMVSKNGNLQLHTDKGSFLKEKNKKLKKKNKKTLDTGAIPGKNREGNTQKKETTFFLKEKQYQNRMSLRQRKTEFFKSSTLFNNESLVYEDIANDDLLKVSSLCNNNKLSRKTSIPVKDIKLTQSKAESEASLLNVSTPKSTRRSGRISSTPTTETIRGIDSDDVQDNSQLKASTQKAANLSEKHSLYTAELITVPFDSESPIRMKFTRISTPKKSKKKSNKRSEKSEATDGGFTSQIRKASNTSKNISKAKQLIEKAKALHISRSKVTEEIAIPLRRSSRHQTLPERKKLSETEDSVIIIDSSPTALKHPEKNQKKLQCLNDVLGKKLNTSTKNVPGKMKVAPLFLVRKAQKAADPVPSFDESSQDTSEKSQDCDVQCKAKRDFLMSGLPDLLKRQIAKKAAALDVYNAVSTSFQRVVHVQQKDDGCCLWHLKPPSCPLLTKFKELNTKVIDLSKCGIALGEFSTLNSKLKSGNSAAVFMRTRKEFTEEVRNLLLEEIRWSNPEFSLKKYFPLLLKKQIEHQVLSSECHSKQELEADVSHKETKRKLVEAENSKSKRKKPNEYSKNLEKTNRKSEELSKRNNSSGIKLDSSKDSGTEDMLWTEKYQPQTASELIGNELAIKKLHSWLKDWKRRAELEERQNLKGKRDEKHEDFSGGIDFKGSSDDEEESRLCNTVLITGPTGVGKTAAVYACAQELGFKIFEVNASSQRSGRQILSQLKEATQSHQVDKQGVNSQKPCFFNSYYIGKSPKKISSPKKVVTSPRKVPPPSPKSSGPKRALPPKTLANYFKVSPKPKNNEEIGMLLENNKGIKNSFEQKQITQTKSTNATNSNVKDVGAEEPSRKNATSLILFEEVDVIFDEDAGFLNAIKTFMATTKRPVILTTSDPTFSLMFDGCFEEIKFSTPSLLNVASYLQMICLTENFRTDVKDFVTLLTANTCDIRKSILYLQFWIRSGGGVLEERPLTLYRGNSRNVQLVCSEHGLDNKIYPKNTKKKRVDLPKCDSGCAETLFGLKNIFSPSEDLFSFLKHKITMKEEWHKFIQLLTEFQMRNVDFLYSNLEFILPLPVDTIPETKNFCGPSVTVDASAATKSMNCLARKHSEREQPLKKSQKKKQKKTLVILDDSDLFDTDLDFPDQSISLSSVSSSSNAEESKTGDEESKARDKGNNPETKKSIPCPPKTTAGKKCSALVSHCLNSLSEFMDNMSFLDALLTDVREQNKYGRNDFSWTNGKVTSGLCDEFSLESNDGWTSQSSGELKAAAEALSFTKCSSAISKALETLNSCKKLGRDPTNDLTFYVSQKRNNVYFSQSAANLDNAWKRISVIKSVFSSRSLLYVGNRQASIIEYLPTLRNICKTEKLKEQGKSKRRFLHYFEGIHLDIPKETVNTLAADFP
UniProt Q96BY9: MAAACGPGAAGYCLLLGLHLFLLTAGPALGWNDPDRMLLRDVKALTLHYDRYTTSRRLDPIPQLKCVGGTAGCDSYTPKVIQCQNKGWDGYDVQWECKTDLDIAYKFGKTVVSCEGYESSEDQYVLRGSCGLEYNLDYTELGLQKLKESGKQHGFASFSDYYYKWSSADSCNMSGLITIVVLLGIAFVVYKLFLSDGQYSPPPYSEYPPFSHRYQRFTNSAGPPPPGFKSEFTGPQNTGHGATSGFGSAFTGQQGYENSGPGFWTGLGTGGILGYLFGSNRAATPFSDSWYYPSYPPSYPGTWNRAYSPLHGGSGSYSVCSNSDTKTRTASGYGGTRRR
UniProt Q96K49: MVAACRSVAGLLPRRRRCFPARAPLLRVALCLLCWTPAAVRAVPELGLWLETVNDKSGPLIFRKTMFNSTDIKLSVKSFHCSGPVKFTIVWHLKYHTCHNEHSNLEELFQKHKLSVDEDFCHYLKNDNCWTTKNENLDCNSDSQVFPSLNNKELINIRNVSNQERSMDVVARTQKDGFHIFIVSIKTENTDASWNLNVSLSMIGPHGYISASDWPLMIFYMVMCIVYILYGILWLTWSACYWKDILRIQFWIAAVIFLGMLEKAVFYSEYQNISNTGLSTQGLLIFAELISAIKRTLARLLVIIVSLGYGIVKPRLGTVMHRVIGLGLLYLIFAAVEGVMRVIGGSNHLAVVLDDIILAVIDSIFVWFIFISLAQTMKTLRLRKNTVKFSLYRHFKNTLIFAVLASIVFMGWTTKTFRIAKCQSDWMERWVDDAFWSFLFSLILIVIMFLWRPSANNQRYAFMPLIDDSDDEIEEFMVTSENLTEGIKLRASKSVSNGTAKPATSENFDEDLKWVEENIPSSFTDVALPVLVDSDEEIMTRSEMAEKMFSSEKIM
UniProt Q96G61: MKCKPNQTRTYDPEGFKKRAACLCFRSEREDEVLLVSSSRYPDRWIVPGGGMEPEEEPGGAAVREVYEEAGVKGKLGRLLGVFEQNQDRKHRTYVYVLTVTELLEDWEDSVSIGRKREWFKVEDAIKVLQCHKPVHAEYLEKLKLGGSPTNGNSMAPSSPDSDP
UniProt Q96EP0: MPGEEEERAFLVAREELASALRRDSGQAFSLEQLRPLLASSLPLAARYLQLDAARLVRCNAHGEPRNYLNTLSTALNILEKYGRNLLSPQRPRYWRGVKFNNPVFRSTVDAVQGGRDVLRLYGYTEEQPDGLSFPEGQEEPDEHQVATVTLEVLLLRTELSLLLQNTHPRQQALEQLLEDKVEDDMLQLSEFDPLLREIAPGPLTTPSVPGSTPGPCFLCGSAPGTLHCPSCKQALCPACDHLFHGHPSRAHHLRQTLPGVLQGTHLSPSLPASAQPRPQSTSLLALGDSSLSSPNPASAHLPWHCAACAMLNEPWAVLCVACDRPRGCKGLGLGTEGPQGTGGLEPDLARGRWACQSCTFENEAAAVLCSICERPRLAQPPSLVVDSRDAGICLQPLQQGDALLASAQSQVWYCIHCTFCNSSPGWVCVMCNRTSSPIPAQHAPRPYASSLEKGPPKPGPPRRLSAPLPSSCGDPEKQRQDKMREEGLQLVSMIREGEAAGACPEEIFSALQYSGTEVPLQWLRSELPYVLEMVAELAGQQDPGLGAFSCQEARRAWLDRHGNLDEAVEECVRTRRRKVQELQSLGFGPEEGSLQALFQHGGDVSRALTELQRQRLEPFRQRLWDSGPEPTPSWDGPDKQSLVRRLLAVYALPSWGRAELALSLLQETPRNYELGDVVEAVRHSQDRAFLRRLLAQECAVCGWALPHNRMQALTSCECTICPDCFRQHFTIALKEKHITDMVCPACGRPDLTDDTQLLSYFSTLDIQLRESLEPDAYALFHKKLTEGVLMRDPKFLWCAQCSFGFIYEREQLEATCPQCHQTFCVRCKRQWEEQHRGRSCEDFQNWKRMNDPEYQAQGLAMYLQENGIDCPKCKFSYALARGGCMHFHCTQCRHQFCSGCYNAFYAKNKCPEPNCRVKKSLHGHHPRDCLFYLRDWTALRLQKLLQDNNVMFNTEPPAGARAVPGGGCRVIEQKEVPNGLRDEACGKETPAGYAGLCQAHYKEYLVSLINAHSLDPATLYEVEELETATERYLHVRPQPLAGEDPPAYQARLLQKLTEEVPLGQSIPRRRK
UniProt Q92989: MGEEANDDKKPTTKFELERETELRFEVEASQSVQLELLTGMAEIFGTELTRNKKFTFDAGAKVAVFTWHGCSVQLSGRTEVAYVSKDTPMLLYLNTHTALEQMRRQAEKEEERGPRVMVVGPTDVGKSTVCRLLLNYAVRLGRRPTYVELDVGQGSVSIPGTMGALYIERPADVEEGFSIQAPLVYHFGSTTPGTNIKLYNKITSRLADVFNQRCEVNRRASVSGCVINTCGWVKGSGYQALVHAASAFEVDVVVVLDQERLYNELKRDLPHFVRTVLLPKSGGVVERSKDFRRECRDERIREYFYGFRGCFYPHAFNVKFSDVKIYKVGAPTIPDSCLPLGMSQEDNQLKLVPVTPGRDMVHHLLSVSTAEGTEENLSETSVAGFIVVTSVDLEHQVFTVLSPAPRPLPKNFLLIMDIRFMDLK
UniProt Q96N64: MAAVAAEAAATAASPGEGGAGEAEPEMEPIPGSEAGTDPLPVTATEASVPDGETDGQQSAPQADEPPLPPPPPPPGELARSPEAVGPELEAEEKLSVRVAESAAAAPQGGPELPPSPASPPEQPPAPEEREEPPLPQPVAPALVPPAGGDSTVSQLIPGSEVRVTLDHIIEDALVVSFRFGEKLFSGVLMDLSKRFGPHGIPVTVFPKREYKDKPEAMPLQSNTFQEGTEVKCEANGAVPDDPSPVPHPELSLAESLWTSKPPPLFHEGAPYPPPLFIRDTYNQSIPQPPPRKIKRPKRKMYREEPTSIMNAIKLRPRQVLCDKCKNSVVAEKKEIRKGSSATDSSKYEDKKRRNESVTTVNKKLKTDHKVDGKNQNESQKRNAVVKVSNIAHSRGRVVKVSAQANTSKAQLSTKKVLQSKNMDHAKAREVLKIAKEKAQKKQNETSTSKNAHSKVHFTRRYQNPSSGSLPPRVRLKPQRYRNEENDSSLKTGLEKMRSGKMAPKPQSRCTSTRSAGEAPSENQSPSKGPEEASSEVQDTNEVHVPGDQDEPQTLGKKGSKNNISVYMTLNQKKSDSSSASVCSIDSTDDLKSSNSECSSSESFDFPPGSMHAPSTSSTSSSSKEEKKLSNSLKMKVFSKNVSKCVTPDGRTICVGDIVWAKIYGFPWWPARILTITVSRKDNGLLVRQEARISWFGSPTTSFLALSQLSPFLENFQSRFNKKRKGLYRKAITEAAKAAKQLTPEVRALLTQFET

Compound: Nc1ncnc2c1ncn2[C@@H]1O[C@H](COP(=O)(O)OP(=O)(O)NP(=O)(O)O)[C@@H](O)[C@H]1O [adenylyl imidodiphosphate]
Assay: NP40-soluble protein abundance relative to vehicle (solubility fold change) (ratio); higher = more soluble protein in presence of AMP-PNP
How it was run: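 Data come from three independent experiments in which Dounce-homogenised Jurkat crude lysate was treated at eight concentrations from 0.1 to 10 mM. Treatment ran 10 min at room temperature and then 3 min at 37 °C, after which 0.8% NP40 and benzonase were added for 60 min at 4 °C before ultracentrifugation. The supernatant underwent TMT labelling and LC-MS/MS, and vsn-normalised intensities were expressed as fold change against the detergent-processed vehicle in each replicate.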

Target	NP40-soluble protein abundance (concentration: 1mM)	NP40-soluble protein abundance (concentration: 2mM)	NP40-soluble protein abundance (concentration: 4mM)	NP40-soluble protein abundance (concentration: 6mM)	NP40-soluble protein abundance (concentration: 8mM)	NP40-soluble protein abundance (concentration: 10mM)
UniProt Q96GC5 and related entries	0.973 ± 0.08	1 ± 0.04	0.955 ± 0.11	0.992 ± 0.14	1 ± 0.1	1.05 ± 0.17
PGM2 (UniProt Q96G03)	0.958 ± 0.028	0.871 ± 0.082	0.929 ± 0.027	0.977 ± 0.05	1 ± 0.022	0.941 ± 0.029
UniProt Q96EX2	1.002 ± 0.0031	0.979 ± 0.029	0.9437 ± 0.0026	0.993 ± 0.026	0.972 ± 0.024	0.96 ± 0.018
SIPA1 (UniProt Q96FS4)	1.01 ± 0.037	1.013 ± 0.003	1.03 ± 0.025	1.05 ± 0.029	1.03 ± 0.036	1.04 ± 0.02
NSL1 (UniProt Q96IY1)	1.01 ± 0.027	1.03 ± 0.034	1.02 ± 0.04	1.04 ± 0.052	1.03 ± 0.041	1.05 ± 0.049
UniProt Q96HS1 and related entries	0.987 ± 0.045	0.993 ± 0.076	1.06 ± 0.1	1.15 ± 0.096	1.23 ± 0.14	1.27 ± 0.19
UniProt Q96G23	1 ± 0.068	0.914 ± 0.058	0.953 ± 0.021	0.914 ± 0.045	0.938 ± 0.018	0.939 ± 0.015
UniProt Q96Q89-3|Q96Q89 and related entries	1.03 ± 0.033	1.01 ± 0.021	1.02 ± 0.052	0.988 ± 0.054	0.944 ± 0.046	0.984 ± 0.073
UniProt Q96L91 and related entries	1.03 ± 0.036	1.09 ± 0.038	1.05 ± 0.028	1.05 ± 0.061	1.03 ± 0.057	1.1 ± 0.084
SFXN2 (UniProt Q96NB2)	0.983 ± 0.015	0.947 ± 0.032	0.99 ± 0.027	0.971 ± 0.035	0.991 ± 0.013	0.982 ± 0.022
UniProt Q96FJ0 and related entries	1.02 ± 0.012	0.989 ± 0.029	1.06 ± 0.013	1.06 ± 0.045	1.08 ± 0.018	1.07 ± 0.014
OMA1 (UniProt Q96E52)	0.986 ± 0.034	0.976 ± 0.017	1 ± 0.03	0.933 ± 0.026	0.965 ± 0.04	0.943 ± 0.033
UniProt Q96L92 and related entries	0.969 ± 0.013	0.938 ± 0.068	0.969 ± 0.029	0.948 ± 0.013	0.957 ± 0.037	0.925 ± 0.054
PPWD1 (UniProt Q96BP3)	0.984 ± 0.013	0.933 ± 0.087	1 ± 0.06	1.01 ± 0.037	1.04 ± 0.042	1.02 ± 0.036
UniProt Q93015 and related entries	0.978 ± 0.06	0.985 ± 0.0068	0.964 ± 0.025	0.9652 ± 0.002	1 ± 0.024	0.982 ± 0.035
COG8 (UniProt Q96MW5)	0.943 ± 0.019	0.937 ± 0.016	0.971 ± 0.023	0.977 ± 0.022	0.961 ± 0.029	0.951 ± 0.04
RBMXL1 (UniProt Q96E39)	1.03 ± 0.056	1.14 ± 0.046	1.11 ± 0.024	1.19 ± 0.038	1.25 ± 0.059	1.31 ± 0.036
UniProt Q96KP4 and related entries	1.02 ± 0.03	1.03 ± 0.029	1 ± 0.045	1.06 ± 0.05	0.99 ± 0.057	1.027 ± 0.0078
UniProt Q96D05 and related entries	0.957 ± 0.027	0.987 ± 0.011	0.972 ± 0.045	0.987 ± 0.044	0.97 ± 0.05	0.972 ± 0.048
SENP8 (UniProt Q96LD8)	1.01 ± 0.019	0.974 ± 0.044	1.01 ± 0.039	0.985 ± 0.04	0.987 ± 0.023	0.971 ± 0.026

Target	NP40-soluble protein abundance (concentration: 1mM)	NP40-soluble protein abundance (concentration: 2mM)	NP40-soluble protein abundance (concentration: 4mM)	NP40-soluble protein abundance (concentration: 6mM)	NP40-soluble protein abundance (concentration: 8mM)	NP40-soluble protein abundance (concentration: 10mM)
CCDC97 (UniProt Q96F63)	0.981 ± 0.06	1.04 ± 0.043	0.978 ± 0.076	1 ± 0.052	0.984 ± 0.064	0.972 ± 0.027
NRBF2 (UniProt Q96F24)	1.02 ± 0.052	1.07 ± 0.037	1.01 ± 0.054	0.947 ± 0.035	0.965 ± 0.048	0.953 ± 0.042
UniProt Q96EH3	0.948 ± 0.028	0.937 ± 0.063	0.932 ± 0.027	0.971 ± 0.022	0.969 ± 0.011	0.95 ± 0.037
UniProt Q96ME1-4	0.97 ± 0.015	0.964 ± 0.016	0.993 ± 0.043	0.985 ± 0.024	1 ± 0.018	0.988 ± 0.072
LPP (UniProt Q93052)	1.02 ± 0.024	1.03 ± 0.036	1.02 ± 0.028	0.986 ± 0.051	0.983 ± 0.035	0.964 ± 0.083
UniProt Q96AE4 and related entries	1.014 ± 0.0086	1.06 ± 0.058	0.996 ± 0.034	0.973 ± 0.017	0.944 ± 0.011	0.936 ± 0.035
UniProt Q96CU9 and related entries	0.985 ± 0.033	0.91 ± 0.097	1.03 ± 0.06	1.04 ± 0.025	1.09 ± 0.028	1.07 ± 0.04
ATG2B (UniProt Q96BY7)	0.969 ± 0.044	0.97 ± 0.065	0.956 ± 0.075	0.974 ± 0.011	0.9529 ± 0.0028	1.062 ± 0.0098
CHMP6 (UniProt Q96FZ7)	1.03 ± 0.028	1.05 ± 0.022	1.03 ± 0.038	1.01 ± 0.03	1.02 ± 0.032	0.964 ± 0.033
ATAD5 (UniProt Q96QE3)	1.03 ± 0.026	1.05 ± 0.046	1.08 ± 0.028	1.08 ± 0.031	1.08 ± 0.022	1.12 ± 0.045
PURB (UniProt Q96QR8)	1 ± 0.019	0.996 ± 0.057	1.04 ± 0.029	1.04 ± 0.045	1.042 ± 0.01	1.08 ± 0.055
UniProt Q96N66 and related entries	0.964 ± 0.022	0.908 ± 0.071	0.968 ± 0.026	0.964 ± 0.049	1 ± 0.023	0.939 ± 0.042
MCEE (UniProt Q96PE7)	0.998 ± 0.04	1.01 ± 0.04	0.997 ± 0.046	1.06 ± 0.036	1.03 ± 0.08	1.05 ± 0.1
UniProt Q96II8 and related entries	1.026 ± 0.0073	1.01 ± 0.035	1.04 ± 0.041	1.01 ± 0.057	1.01 ± 0.08	1.06 ± 0.092
UniProt Q96FJ2	1.06 ± 0.022	1.08 ± 0.071	1.04 ± 0.059	0.998 ± 0.024	1.03 ± 0.048	0.987 ± 0.025
ALKBH3 (UniProt Q96Q83)	1.03 ± 0.029	1.05 ± 0.022	1.05 ± 0.05	0.998 ± 0.02	1 ± 0.015	1.04 ± 0.06
ELP4 (UniProt Q96EB1)	0.992 ± 0.043	0.941 ± 0.072	0.979 ± 0.057	0.953 ± 0.074	0.973 ± 0.038	0.956 ± 0.065
RAB39B (UniProt Q96DA2)	1 ± 0.025	0.934 ± 0.066	0.996 ± 0.019	0.9868 ± 0.0097	0.986 ± 0.015	0.954 ± 0.041
UniProt Q96P11 and related entries	1.01 ± 0.032	1.01 ± 0.069	1.09 ± 0.03	1.07 ± 0.017	1.108 ± 0.01	1.123 ± 0.011
LRRC59 (UniProt Q96AG4)	1.11 ± 0.048	1.32 ± 0.3	1.13 ± 0.089	1.15 ± 0.028	1.12 ± 0.052	1.19 ± 0.13

Target	NP40-soluble protein abundance (concentration: 1mM)	NP40-soluble protein abundance (concentration: 2mM)	NP40-soluble protein abundance (concentration: 4mM)	NP40-soluble protein abundance (concentration: 6mM)	NP40-soluble protein abundance (concentration: 8mM)	NP40-soluble protein abundance (concentration: 10mM)
UniProt Q96BY9 and related entries	1.008 ± 0.01	1.03 ± 0.037	1.02 ± 0.029	1.02 ± 0.028	1.02 ± 0.035	1.02 ± 0.025
UniProt Q96EE3 and related entries	1 ± 0.05	0.954 ± 0.03	1.04 ± 0.012	0.994 ± 0.046	1.09 ± 0.036	1.04 ± 0.012
TSR2 (UniProt Q969E8)	1.05 ± 0.04	1.05 ± 0.059	1.04 ± 0.053	1.1 ± 0.025	1.1 ± 0.038	1.08 ± 0.087
UniProt Q96DZ1	0.966 ± 0.015	0.967 ± 0.057	0.952 ± 0.028	0.946 ± 0.034	0.928 ± 0.036	0.95 ± 0.054
PDLIM5 (UniProt Q96HC4)	1.02 ± 0.024	1.03 ± 0.03	1.02 ± 0.032	1.01 ± 0.012	0.9688 ± 0.0086	0.994 ± 0.033
MUL1 (UniProt Q969V5)	1.01 ± 0.016	1.03 ± 0.068	1.04 ± 0.071	1.01 ± 0.042	1.01 ± 0.06	1.03 ± 0.06
UniProt Q96K49 and related entries	0.99 ± 0.013	1.01 ± 0.027	0.984 ± 0.026	0.9718 ± 0.005	0.9653 ± 0.0019	0.9716 ± 0.0066
PPP1R14B (UniProt Q96C90)	1 ± 0.034	1.03 ± 0.014	0.978 ± 0.011	0.9649 ± 0.0037	0.98 ± 0.016	0.987 ± 0.012
EXOC2 (UniProt Q96KP1)	0.984 ± 0.02	0.991 ± 0.048	0.972 ± 0.018	0.994 ± 0.015	1.004 ± 0.003	1 ± 0.026
MRPL38 (UniProt Q96DV4)	0.977 ± 0.13	0.984 ± 0.11	0.965 ± 0.13	0.956 ± 0.17	0.939 ± 0.14	0.923 ± 0.17
NUDT11 (UniProt Q96G61)	1.02 ± 0.05	1.01 ± 0.034	1.03 ± 0.058	1.08 ± 0.053	1.1 ± 0.019	1.09 ± 0.052
GCC1 (UniProt Q96CN9)	1.022 ± 0.0097	1.06 ± 0.055	1.051 ± 0.0087	0.978 ± 0.028	0.962 ± 0.019	1.01 ± 0.012
UniProt Q96DB5	0.983 ± 0.014	0.991 ± 0.011	0.985 ± 0.011	0.994 ± 0.025	0.994 ± 0.028	0.981 ± 0.025
TRMT61A (UniProt Q96FX7)	1.01 ± 0.041	0.933 ± 0.069	1.03 ± 0.022	0.993 ± 0.047	1.03 ± 0.036	1.001 ± 0.0083
RNF31 (UniProt Q96EP0)	0.966 ± 0.016	0.96 ± 0.025	0.963 ± 0.028	0.9189 ± 0.003	0.904 ± 0.02	0.8976 ± 0.0037
UniProt Q92989 and related entries	1 ± 0.033	0.979 ± 0.025	1.01 ± 0.016	1.04 ± 0.062	1.07 ± 0.016	1.06 ± 0.061
UniProt Q96B97 and related entries	1.03 ± 0.019	1.07 ± 0.033	1.033 ± 0.0091	1.01 ± 0.039	0.971 ± 0.023	1.02 ± 0.027
UniProt Q93050 and related entries	0.988 ± 0.038	0.924 ± 0.098	0.958 ± 0.087	0.897 ± 0.079	0.903 ± 0.091	0.892 ± 0.1
PWWP2A (UniProt Q96N64)	1.03 ± 0.022	1.04 ± 0.062	1.05 ± 0.043	1.06 ± 0.027	1.06 ± 0.03	1.09 ± 0.076
EXOC4 (UniProt Q96A65)	0.996 ± 0.04	0.993 ± 0.043	0.981 ± 0.025	0.966 ± 0.049	0.935 ± 0.017	0.956 ± 0.023

Single records, as listed above.
PDLIM5 (UniProt Q96HC4) is listed with NP40-soluble protein abundance (concentration: 1mM): 1.02 ± 0.024; NP40-soluble protein abundance (concentration: 2mM): 1.03 ± 0.03; NP40-soluble protein abundance (concentration: 4mM): 1.02 ± 0.032; NP40-soluble protein abundance (concentration: 6mM): 1.01 ± 0.012; NP40-soluble protein abundance (concentration: 8mM): 0.9688 ± 0.0086; NP40-soluble protein abundance (concentration: 10mM): 0.994 ± 0.033
UniProt Q96EE3 and related entries is listed with NP40-soluble protein abundance (concentration: 1mM): 1 ± 0.05; NP40-soluble protein abundance (concentration: 2mM): 0.954 ± 0.03; NP40-soluble protein abundance (concentration: 4mM): 1.04 ± 0.012; NP40-soluble protein abundance (concentration: 6mM): 0.994 ± 0.046; NP40-soluble protein abundance (concentration: 8mM): 1.09 ± 0.036; NP40-soluble protein abundance (concentration: 10mM): 1.04 ± 0.012
UniProt Q96BY9 and related entries is listed with NP40-soluble protein abundance (concentration: 1mM): 1.008 ± 0.01; NP40-soluble protein abundance (concentration: 2mM): 1.03 ± 0.037; NP40-soluble protein abundance (concentration: 4mM): 1.02 ± 0.029; NP40-soluble protein abundance (concentration: 6mM): 1.02 ± 0.028; NP40-soluble protein abundance (concentration: 8mM): 1.02 ± 0.035; NP40-soluble protein abundance (concentration: 10mM): 1.02 ± 0.025
PWWP2A (UniProt Q96N64) is listed with NP40-soluble protein abundance (concentration: 1mM): 1.03 ± 0.022; NP40-soluble protein abundance (concentration: 2mM): 1.04 ± 0.062; NP40-soluble protein abundance (concentration: 4mM): 1.05 ± 0.043; NP40-soluble protein abundance (concentration: 6mM): 1.06 ± 0.027; NP40-soluble protein abundance (concentration: 8mM): 1.06 ± 0.03; NP40-soluble protein abundance (concentration: 10mM): 1.09 ± 0.076
